Laboratory results as given in patent publication US20240115745A1, “COMPOUNDS COMPRISING A FIBROBLAST ACTIVATION PROTEIN LIGAND AND USE THEREOF” (3B PHARMACEUTICALS GMBH, priority 2021, published 2024).
At least one structure is not confirmed: it was looked up by name or label, or the drawing left a doubt.

Amino acid sequences for entries named in this document (tags omitted). Residues count along the entry.
UniProt Q12884, 26-760 limits assumed: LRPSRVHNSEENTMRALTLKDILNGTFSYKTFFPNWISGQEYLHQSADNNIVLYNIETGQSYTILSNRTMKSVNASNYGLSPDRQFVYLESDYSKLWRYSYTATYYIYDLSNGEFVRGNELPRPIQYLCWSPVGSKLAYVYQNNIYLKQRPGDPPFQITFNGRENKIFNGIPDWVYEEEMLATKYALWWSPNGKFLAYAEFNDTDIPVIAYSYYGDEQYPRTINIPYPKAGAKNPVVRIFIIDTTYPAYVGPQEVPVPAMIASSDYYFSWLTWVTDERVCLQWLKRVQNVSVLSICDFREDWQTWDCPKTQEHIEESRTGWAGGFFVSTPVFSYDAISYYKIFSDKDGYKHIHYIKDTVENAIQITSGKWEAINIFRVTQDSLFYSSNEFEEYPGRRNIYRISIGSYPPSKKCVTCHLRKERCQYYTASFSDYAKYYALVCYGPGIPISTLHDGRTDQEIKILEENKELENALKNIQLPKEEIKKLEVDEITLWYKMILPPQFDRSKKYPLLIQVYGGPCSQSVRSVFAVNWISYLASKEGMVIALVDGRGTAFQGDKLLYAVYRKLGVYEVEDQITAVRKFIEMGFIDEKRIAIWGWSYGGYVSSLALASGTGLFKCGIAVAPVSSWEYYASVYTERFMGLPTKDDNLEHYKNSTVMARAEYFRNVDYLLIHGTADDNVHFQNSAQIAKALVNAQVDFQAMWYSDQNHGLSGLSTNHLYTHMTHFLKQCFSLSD
UniProt Q12884, whole entry: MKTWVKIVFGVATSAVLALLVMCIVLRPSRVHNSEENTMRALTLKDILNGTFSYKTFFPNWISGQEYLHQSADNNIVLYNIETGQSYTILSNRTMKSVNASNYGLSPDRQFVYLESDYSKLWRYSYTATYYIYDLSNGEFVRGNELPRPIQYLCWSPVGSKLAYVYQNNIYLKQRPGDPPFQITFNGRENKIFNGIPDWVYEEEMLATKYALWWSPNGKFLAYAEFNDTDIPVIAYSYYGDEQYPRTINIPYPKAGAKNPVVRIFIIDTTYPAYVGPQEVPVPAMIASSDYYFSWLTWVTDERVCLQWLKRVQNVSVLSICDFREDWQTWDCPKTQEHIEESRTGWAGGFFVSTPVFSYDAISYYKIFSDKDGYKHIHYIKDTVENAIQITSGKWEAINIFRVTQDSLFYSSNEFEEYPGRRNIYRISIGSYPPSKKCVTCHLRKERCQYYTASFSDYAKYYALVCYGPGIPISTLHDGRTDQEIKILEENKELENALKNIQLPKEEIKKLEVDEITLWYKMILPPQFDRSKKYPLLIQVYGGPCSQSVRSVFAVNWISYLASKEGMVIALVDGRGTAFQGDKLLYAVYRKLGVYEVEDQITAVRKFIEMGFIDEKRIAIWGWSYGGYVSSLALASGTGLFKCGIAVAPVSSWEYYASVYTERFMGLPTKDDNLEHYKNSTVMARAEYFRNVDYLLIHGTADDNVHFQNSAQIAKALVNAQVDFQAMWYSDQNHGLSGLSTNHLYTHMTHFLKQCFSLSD

What was measured:
Recombinant human FAP = target: T1, Recombinant human FAP (Homo sapiens, UniProt Q12884); assay: FRET-based FAP protease activity assay; assay type: biochemical; conditions: FRET-peptide substrate, 37° C.
T1 construct: purchased R&D systems 3715-SE

[1] = target: T2, FAP-expressing human WI-38 fibroblasts (Homo sapiens, UniProt Q12884); assay: Competitive FACS binding assay; conditions: competition with 3 nM Cy5-labeled compound, 4° C., 1 hour;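 also: flow cytometry read-out of median Cy5 fluorescence on the cells, plotted versus test compound concentration, with IC50 derived by four-parameter logistic curve fitting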
T2 construct: FAP-expressing human WI-38 fibroblasts (ECACC) were cultured in EMEM; host or cells: WI-38 human fibroblasts

CCCCNC(=O)N[C@H]1CSC2=C(SC[C@@H](C(=O)N[C@@H](CCCCNC(=O)CN3CCN(CC(=O)O)CCN(CC(=O)O)CCN(CC(=O)O)CC3)CC(=O)O)NC(=O)[C@H](Cc3ccccc3)NC(=O)[C@H](CCC(N)=O)NC(=O)C([C@@H](C)O)NC(=O)[C@@H]3CCCN3C(=O)[C@@H]3CCCN3C1=O)C(=O)NC2=O (stereo partly drawn) [Compound 2013, Buur-[Cys(mli)-Pro-Pro-Thr-Gln-Phe-Cys]-Bhk(DOTA)-OH]
pIC50 Category (Activity) (Recombinant human FAP): A (pIC50 category A stands for pIC50 values >7.0)
pIC50 Category (FACS) [1]: A (pIC50 category A stands for pIC50 values >7.0)
